The values below come from patent publication US9307782B2, “Mannanase produced from Cellulosimicrobium sp. strain HY-13” (Korea Research Institute of Bioscience and Biotechnology, priority 2011, dated 2016).

Data set [1] in a line: Optimum reaction temperature and pH of the mannanase. It counts as biochemical. As to conditions: maximum degrading activity with locust bean gum.
For data set [2] the following is noted: comparison enzymes of other strains; cited from earlier work.

Like-named read-outs stand apart in the source and are kept apart here.

B1: Mannanase: Wild type β-1,4-mannanase of Bacillus subtilis WY34 (protein)
chain: MRRLFAIVLGAVLALLAVPALAQGASVASDGFSVQDGRIYDANGNRFVPVGVNHAHAWYPSQTQSFADIRAAGANTVRVVLSGGRYGTSSAADVSAVVERCKQNQLVCILENHDTTGYGEDGSARSLASAAQYWTSIASVLRGQERYVMINIGNEPFGNSGFQSWTTDTIAAIRTLRAAGLDHTLVVDAPNWGQDWSFTMRDNAPTVAAADGNVVFSVHMYGVFDTGAEVRAYLDSFTSRGLPIMVGEFGDNHSDGNPDEATIMSYTRSQGIGMLGWSWSGNGGGVEYLDMVNGFSASSLTPWGQRFVHGADGLRARNAPAASVYGGDGGDGDGGAGTAPNGYPYCASASSDPDGDGWGWESSASCVVRGSSADTGSGGGSGSGSTAPNGYPYCASASSDPDGDGWGWESSASCVVRGSSADR
modifications: cellulosimicrobium
notes: Wild type β-1,4-mannanase of Bacillus subtilis WY34
Regarding B1, the “Opt. pH” value in data set [1] and in data set [2] was 6.0 each time. In addition, in data set [2], the Opt. temp. is 65 °C.

B2: rManH: Recombinant GH5 β-1,4-mannanase of Cellulosimicrobium sp. HY-13 produced in E. coli; SEQ. ID. NO: 1; approximately 44 kDa (protein)
chain: B1 chain
modifications: cellulosimicrobium
notes: Recombinant GH5 β-1,4-mannanase of Cellulosimicrobium sp; HY-13 produced in E. coli; ID; NO: 1; approximately 44 kDa
As for B2, the “Opt. pH” value in data set [1] is listed as 6.0.
